Test results taken from PMC3804392.
No constants are given. Whether binding was seen depends on the method and setting. For some of these results: In cells and extracts the contact can be indirect. Some results given as binding are weak or reduced against the parent protein; the word gives no strength. Blank lines part the entries; values can stand above or below the substance they belong to.

Amino acid sequences for entries named in this document (tags omitted). A change or cut given only in a name is not applied to a line headed by its entry. Chains listed by the source or under a name are the forms on record and can include a tag or linker. Residues count along the entry.
UniProt Q02156: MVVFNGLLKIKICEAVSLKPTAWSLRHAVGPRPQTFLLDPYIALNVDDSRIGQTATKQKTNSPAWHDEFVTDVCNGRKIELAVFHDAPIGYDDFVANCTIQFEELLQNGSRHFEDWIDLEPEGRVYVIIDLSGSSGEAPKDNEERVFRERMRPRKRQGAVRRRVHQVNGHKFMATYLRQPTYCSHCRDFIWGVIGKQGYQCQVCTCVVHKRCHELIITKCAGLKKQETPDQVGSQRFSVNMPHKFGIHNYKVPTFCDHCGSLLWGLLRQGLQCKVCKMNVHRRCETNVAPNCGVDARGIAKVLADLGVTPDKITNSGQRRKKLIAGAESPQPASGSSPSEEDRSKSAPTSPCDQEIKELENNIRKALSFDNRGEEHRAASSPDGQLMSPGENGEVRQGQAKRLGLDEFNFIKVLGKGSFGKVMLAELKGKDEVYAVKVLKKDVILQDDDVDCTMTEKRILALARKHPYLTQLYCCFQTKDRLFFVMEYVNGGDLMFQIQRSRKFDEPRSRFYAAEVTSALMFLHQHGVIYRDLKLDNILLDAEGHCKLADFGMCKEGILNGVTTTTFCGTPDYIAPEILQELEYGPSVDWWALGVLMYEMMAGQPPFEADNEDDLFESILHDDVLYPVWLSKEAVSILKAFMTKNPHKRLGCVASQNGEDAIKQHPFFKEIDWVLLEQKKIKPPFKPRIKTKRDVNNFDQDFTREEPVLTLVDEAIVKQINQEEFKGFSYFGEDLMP
Recombinant His-tagged PKCε-kinase domain: residues 408-668 of Q02156
UniProt P61586: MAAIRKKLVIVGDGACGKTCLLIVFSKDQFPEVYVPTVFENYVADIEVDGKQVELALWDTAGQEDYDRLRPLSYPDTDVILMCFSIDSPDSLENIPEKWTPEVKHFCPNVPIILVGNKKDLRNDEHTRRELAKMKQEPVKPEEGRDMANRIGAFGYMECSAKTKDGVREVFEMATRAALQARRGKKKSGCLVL

What was measured:
[1] = target: Recombinant His-tagged PKCε-kinase domain (UniProt Q02156); experiment: co-IP; recombinant His-tagged PKCε-kinase domain and GST tagged-RhoA incubated in kinase buffer with phosphatidylserine and diacylglycerol, 30 minutes at 25°C; precipitated with agarose-conjugated anti-His, anti-RhoA or nonspecific IgG; blot with anti-His and anti-RhoA; both purified
[2] = target: Recombinant PKCε (protein kinase Cε) (UniProt Q02156); experiment: co-IP; recombinant PKCε and recombinant RhoA incubated in ATP-free kinase buffer with phosphatidylserine and diacylglycerol, 30 minutes at 25°C; precipitated with agarose-conjugated anti-PKCε antibody (or IgG) at 4°C overnight; blot with anti-RhoA; both purified
[3] = target: mCherry-PKCε (human) (UniProt Q02156); experiment: FRET or BRET; quantitative stoichiometric FRET in live HEK293 cells cotransfected with the mCherry (acceptor) and eGFP (donor) fusions; images before and every 15 seconds after PMA (100 nM) for 12.5 minutes
[4] = target: mCherry-PKCε/K437R (human) (UniProt Q02156); experiment: as above

- binding [1]: binds
Substance: Recombinant GST tagged-RhoA (from UniProt P61586 1-193)

- binding [2]: binds
Substance: Recombinant RhoA (from UniProt P61586 1-193)

- binding [3]: binds
- binding [4]: binds
Substance: eGFP-RhoA (from UniProt P61586 1-193)
